From the supplement of paper PMC6411743
± gives the standard deviation of the averaged measurements. The list shows a part of the results, in another mix than the full data. Most values lie at the level of the controls, where differences are scatter.

The chains behind the UniProt entries cited, without tags or fusion partners. Where a name states a change or a piece, a line headed by the entry shows the natural chain unless it says otherwise.
UniProt Q15404: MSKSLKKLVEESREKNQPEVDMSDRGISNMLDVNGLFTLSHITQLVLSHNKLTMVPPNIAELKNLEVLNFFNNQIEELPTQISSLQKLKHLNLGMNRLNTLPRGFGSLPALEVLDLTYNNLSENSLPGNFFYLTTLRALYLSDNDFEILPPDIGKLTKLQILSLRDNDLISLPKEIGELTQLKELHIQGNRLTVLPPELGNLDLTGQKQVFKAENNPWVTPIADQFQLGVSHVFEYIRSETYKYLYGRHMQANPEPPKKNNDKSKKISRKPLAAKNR
UniProt Q14457, whole entry: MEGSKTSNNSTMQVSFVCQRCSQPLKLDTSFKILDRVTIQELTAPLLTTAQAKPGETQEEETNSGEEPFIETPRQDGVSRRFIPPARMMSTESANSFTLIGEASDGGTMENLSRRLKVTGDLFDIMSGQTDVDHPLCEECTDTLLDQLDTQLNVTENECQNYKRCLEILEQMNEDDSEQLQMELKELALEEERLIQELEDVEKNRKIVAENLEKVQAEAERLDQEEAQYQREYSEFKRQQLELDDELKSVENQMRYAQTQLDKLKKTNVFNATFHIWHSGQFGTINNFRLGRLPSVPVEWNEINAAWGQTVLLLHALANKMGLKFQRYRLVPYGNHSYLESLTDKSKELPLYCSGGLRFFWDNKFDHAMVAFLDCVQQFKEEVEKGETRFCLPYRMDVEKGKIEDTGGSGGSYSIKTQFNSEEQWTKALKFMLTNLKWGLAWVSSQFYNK
UniProt Q15544, whole entry: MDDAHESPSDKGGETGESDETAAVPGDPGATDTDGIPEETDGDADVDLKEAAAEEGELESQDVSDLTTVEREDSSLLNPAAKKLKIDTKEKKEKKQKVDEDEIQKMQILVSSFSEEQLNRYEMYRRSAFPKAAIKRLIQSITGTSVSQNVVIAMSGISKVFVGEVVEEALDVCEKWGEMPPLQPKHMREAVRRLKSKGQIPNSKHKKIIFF
UniProt Q15007: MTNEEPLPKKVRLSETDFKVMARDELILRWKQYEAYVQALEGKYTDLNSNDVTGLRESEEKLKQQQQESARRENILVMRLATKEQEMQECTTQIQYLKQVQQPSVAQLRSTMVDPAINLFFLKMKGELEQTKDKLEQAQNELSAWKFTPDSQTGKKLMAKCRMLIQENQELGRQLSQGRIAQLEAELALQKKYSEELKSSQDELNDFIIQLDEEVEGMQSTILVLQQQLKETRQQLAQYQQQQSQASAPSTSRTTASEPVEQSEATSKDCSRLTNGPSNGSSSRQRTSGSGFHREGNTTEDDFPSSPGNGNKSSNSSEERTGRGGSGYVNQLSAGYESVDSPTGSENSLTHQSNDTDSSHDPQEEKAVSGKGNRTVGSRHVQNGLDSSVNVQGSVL
UniProt Q15102: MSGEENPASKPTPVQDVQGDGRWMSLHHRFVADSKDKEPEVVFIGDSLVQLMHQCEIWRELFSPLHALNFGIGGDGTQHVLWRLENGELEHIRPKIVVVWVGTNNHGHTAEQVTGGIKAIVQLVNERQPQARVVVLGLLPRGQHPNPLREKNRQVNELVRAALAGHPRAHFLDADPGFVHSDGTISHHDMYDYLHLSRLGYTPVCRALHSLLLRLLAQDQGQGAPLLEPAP
UniProt Q16204: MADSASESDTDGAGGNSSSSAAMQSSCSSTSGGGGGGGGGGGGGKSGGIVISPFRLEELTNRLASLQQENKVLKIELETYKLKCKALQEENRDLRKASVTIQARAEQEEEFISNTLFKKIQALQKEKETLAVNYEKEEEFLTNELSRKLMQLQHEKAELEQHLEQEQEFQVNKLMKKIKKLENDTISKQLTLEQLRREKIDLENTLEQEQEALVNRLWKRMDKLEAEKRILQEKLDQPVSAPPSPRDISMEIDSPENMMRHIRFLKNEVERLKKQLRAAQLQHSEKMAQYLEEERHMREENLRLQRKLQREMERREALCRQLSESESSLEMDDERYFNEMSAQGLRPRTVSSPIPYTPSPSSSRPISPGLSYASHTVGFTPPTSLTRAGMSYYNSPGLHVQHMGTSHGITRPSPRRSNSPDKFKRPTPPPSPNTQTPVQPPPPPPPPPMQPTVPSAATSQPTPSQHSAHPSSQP
UniProt Q32P41: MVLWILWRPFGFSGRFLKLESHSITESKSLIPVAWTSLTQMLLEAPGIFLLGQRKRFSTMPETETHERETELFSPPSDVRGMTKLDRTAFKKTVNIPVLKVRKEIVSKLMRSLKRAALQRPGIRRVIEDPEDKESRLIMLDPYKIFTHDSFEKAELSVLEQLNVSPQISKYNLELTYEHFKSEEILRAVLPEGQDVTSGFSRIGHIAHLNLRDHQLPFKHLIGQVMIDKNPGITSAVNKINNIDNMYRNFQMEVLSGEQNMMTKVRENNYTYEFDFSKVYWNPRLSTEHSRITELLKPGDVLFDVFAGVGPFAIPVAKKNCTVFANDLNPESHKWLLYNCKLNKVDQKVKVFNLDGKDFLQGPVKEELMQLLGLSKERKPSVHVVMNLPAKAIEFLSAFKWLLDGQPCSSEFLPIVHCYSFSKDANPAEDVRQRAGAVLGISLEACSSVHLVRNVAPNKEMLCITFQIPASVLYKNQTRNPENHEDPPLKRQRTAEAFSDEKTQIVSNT
UniProt Q16795, whole entry: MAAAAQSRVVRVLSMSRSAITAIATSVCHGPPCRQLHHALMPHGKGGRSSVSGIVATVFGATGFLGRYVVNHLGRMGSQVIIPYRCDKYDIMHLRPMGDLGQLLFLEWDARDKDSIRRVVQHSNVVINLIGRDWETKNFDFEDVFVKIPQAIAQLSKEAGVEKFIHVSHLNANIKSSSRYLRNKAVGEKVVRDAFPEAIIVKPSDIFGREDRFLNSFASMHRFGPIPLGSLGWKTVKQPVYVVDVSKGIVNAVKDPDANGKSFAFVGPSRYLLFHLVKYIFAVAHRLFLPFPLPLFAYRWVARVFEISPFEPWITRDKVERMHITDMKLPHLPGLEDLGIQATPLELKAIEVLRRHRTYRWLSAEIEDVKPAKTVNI
UniProt Q14739: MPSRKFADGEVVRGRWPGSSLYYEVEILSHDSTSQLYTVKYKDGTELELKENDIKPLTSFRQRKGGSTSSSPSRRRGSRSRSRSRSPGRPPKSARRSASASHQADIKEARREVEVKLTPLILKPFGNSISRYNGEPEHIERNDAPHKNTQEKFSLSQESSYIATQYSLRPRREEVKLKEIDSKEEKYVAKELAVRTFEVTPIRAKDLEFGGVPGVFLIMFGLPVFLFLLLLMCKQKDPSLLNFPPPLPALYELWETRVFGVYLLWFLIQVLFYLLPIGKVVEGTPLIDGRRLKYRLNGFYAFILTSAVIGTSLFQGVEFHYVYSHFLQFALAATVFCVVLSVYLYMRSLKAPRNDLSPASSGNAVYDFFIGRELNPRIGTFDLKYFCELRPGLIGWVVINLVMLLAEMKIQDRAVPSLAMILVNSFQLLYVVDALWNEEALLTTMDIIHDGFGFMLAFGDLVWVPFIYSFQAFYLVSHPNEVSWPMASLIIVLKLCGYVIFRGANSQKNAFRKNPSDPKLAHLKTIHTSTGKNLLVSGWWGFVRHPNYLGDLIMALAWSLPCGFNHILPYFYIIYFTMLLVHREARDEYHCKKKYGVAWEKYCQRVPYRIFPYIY
UniProt Q16513: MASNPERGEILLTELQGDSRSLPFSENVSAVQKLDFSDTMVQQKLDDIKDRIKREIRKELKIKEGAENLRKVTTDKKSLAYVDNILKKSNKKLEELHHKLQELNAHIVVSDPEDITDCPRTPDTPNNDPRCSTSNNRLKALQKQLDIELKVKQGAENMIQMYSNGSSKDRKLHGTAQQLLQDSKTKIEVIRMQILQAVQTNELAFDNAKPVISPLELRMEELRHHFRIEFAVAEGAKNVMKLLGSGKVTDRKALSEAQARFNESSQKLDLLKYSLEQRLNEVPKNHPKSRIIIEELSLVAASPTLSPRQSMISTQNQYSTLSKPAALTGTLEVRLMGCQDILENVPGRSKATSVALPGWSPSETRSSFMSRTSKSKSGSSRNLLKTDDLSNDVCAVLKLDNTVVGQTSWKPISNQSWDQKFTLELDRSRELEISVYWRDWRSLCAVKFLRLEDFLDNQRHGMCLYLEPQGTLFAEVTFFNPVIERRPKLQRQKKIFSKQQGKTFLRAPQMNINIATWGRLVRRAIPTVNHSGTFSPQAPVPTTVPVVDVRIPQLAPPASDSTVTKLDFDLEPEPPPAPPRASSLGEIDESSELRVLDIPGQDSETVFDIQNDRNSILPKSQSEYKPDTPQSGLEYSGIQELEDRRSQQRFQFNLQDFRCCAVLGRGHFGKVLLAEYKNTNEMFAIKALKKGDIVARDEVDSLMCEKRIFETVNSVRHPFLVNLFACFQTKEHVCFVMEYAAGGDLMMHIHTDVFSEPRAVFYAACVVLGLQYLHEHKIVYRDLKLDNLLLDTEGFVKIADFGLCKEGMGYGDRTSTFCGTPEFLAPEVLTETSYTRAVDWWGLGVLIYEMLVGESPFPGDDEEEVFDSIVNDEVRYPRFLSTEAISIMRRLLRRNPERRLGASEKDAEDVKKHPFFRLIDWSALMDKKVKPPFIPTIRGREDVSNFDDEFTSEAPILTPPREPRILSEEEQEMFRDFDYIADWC
UniProt Q15118, whole entry, looked up: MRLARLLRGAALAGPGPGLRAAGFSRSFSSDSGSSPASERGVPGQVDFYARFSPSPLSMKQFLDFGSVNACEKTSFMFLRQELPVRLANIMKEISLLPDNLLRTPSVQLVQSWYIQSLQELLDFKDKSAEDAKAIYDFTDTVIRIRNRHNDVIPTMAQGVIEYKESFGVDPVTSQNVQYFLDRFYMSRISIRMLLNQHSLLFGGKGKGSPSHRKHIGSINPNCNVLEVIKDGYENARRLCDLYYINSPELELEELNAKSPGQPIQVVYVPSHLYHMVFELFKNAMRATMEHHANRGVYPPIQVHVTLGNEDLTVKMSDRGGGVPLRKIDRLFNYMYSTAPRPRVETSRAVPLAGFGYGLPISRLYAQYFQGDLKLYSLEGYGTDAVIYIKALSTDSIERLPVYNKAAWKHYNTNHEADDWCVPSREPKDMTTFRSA
UniProt Q1ED39: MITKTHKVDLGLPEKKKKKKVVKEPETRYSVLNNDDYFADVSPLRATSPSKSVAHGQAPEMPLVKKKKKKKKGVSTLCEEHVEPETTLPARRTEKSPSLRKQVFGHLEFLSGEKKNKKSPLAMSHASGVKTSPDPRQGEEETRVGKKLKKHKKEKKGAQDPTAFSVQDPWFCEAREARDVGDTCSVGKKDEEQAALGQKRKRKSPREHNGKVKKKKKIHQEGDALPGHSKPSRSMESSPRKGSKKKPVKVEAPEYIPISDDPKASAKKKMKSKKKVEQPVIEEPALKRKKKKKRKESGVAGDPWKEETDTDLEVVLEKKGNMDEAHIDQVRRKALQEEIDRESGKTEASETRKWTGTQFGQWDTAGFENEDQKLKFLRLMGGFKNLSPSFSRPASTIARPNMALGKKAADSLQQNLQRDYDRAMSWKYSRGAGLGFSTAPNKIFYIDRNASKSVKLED
UniProt Q15293: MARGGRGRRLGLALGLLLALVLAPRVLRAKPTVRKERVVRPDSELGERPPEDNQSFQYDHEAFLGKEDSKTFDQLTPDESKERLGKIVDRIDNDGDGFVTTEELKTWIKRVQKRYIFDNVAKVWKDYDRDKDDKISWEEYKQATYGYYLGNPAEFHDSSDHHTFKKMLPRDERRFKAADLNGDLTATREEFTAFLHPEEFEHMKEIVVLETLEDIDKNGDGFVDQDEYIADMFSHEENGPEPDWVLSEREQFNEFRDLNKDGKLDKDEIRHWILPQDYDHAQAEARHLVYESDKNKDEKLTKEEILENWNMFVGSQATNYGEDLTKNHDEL
UniProt Q16594, whole entry: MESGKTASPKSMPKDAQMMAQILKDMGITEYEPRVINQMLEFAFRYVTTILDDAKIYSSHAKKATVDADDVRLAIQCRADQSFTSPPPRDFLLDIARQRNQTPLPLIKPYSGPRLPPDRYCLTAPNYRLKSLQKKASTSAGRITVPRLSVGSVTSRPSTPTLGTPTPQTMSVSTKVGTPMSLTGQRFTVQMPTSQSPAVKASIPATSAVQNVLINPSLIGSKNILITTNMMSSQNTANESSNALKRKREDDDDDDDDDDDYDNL
UniProt Q15365, whole entry: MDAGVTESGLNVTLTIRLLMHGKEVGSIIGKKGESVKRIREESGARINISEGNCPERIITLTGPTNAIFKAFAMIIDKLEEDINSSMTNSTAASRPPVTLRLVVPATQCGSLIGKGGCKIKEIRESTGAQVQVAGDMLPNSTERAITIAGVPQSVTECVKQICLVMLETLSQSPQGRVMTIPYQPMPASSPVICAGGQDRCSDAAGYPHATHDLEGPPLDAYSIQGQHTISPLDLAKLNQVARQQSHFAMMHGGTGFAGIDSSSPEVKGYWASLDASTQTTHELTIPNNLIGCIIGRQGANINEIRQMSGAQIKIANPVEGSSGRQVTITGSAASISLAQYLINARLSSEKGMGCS

compound: Nc1ncnc2c1ncn2[C@@H]1O[C@H](COP(=O)(O)OP(=O)(O)OP(=O)(O)O)[C@@H](O)[C@H]1O [adenosine triphosphate]; assay: NP40-soluble protein abundance relative to vehicle (solubility fold change) (ratio); higher = more soluble protein in presence of ATP; settings: concentration: 0.1mM
Outline: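 Crude Jurkat lysate, prepared by Dounce homogenisation, was exposed to eight concentrations from 0.1 to 10 mM for 10 min at room temperature and then 3 min at 37 °C. Solubilisation used 0.8% NP40 with benzonase for 60 min at 4 °C, followed by ultracentrifugation and TMT labelling of the supernatant for LC-MS/MS. After vsn normalisation of intensities, each value is the fold change against the detergent-processed vehicle within each replicate, across three independent experiments.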

Target	NP40-soluble protein abundance
UniProt Q15056 and related entries	0.975 ± 0.045
RSU1 (UniProt Q15404)	1.03 ± 0.047
UniProt Q16539 and related entries	1.01 ± 0.04
PPP2R5D (UniProt Q14738)	0.976 ± 0.026
PUS10 (UniProt Q3MIT2)	0.997 ± 0.067
UniProt Q16877 and related entries	0.933 ± 0.21
BECN1 (UniProt Q14457)	0.988 ± 0.041
UniProt Q15669	0.983 ± 0.026
ESPL1 (UniProt Q14674)	0.932 ± 0.24
UniProt Q15544 and related entries	0.999 ± 0.027
WTAP (UniProt Q15007)	0.944 ± 0.063
PAFAH1B3 (UniProt Q15102)	0.956 ± 0.04
UniProt Q14157-4|Q14157-5|Q14157	0.986 ± 0.011
CCDC6 (UniProt Q16204)	0.966 ± 0.037
TRMT5 (UniProt Q32P41)	1.03 ± 0.05
UniProt Q14694 and related entries	1.02 ± 0.028
UniProt Q16643 and related entries	0.666 ± 0.028
NDUFA9 (UniProt Q16795)	1.04 ± 0.084
FSCN1 (UniProt Q16658)	1.05 ± 0.065

Target	NP40-soluble protein abundance
QPRT (UniProt Q15274)	0.974 ± 0.057
LBR (UniProt Q14739)	0.998 ± 0.06
UniProt Q1W6H9	1.15 ± 0.055
UniProt Q16513 and related entries	1.069 ± 0.0066
UniProt Q15118 and related entries	1.18 ± 0.05
TRIM25 (UniProt Q14258)	1.03 ± 0.061
UniProt Q1ED39	0.976 ± 0.058
SF3B4 (UniProt Q15427)	1.03 ± 0.096
UniProt Q15019 and related entries	1.02 ± 0.072
FRG1 (UniProt Q14331)	1.05 ± 0.062
UniProt Q15149 and related entries	1.01 ± 0.038
RCN1 (UniProt Q15293)	1 ± 0.023
UniProt Q16514-2	0.953 ± 0.12
RASA3 (UniProt Q14644)	1.02 ± 0.032
UniProt Q14669-2|Q14669-3	1.05 ± 0.019
RHEB (UniProt Q15382)	1 ± 0.037
TAF9 (UniProt Q16594)	0.901 ± 0.042
UniProt Q15365	0.9952 ± 0.0029

same assay, conditions: concentration: 0.5mM

Target	NP40-soluble protein abundance
UniProt Q15056 and related entries	0.9495 ± 0.0042
RSU1 (UniProt Q15404)	1.01 ± 0.066
UniProt Q16539 and related entries	1.02 ± 0.03
PPP2R5D (UniProt Q14738)	0.994 ± 0.049
PUS10 (UniProt Q3MIT2)	1.1 ± 0.022
UniProt Q16877 and related entries	1.05 ± 0.041
BECN1 (UniProt Q14457)	0.999 ± 0.057
UniProt Q15669	0.997 ± 0.022
ESPL1 (UniProt Q14674)	0.99 ± 0.096
UniProt Q15544 and related entries	0.937 ± 0.067
WTAP (UniProt Q15007)	0.939 ± 0.061
PAFAH1B3 (UniProt Q15102)	0.89 ± 0.058
UniProt Q14157-4|Q14157-5|Q14157	1.02 ± 0.043
CCDC6 (UniProt Q16204)	0.944 ± 0.038
TRMT5 (UniProt Q32P41)	1.03 ± 0.039
UniProt Q14694 and related entries	1.07 ± 0.041
UniProt Q16643 and related entries	0.612 ± 0.0096
NDUFA9 (UniProt Q16795)	1.06 ± 0.064
FSCN1 (UniProt Q16658)	1.04 ± 0.068

Target	NP40-soluble protein abundance
QPRT (UniProt Q15274)	0.984 ± 0.047
LBR (UniProt Q14739)	0.948 ± 0.036
UniProt Q1W6H9	1.07 ± 0.054
UniProt Q16513 and related entries	1.06 ± 0.033
UniProt Q15118 and related entries	1.32 ± 0.14
TRIM25 (UniProt Q14258)	1.04 ± 0.062
UniProt Q1ED39	1.03 ± 0.027
SF3B4 (UniProt Q15427)	1.09 ± 0.091
UniProt Q15019 and related entries	1.03 ± 0.054
FRG1 (UniProt Q14331)	1.15 ± 0.098
UniProt Q15149 and related entries	1.13 ± 0.06
RCN1 (UniProt Q15293)	0.9875 ± 0.0064
UniProt Q16514-2	0.994 ± 0.11
RASA3 (UniProt Q14644)	1.01 ± 0.07
UniProt Q14669-2|Q14669-3	1.15 ± 0.037
RHEB (UniProt Q15382)	1.04 ± 0.037
TAF9 (UniProt Q16594)	0.865 ± 0.13
UniProt Q15365	0.988 ± 0.033
